Publication PMC11837641
These are yes or no findings as the source states them, for the method shown. In cells and extracts the contact can be indirect. Binding can be weak; no strength is given.

Chains of the proteins cited; added tags and fusions are not shown. Lines headed by an entry give the natural chain unless they say otherwise; changes in a name come on top.
UniProt Q9H239: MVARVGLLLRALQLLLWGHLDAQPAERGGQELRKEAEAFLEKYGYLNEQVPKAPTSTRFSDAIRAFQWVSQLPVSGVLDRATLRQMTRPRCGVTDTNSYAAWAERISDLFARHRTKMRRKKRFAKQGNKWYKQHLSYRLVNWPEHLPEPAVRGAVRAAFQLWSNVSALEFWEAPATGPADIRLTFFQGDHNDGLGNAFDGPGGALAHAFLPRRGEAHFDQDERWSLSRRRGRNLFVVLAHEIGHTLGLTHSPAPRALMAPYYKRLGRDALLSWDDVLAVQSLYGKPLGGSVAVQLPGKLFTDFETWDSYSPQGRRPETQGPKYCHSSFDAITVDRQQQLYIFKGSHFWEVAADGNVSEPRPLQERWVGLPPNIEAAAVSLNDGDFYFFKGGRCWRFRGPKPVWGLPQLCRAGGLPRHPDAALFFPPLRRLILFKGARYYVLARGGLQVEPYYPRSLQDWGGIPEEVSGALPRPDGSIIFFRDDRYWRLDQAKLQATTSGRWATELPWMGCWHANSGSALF
UniProt P07355: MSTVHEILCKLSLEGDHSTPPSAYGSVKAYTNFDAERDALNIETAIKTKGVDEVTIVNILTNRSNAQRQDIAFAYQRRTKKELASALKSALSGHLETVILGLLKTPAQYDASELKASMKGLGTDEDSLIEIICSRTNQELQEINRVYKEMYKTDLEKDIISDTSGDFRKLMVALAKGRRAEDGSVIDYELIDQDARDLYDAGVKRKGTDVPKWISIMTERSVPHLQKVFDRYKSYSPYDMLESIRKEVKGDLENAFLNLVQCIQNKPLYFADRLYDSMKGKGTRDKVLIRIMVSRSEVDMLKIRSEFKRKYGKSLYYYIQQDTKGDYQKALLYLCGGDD

Molecular target: matrix metalloproteinase 28 (MMP28) (human (endogenous in AsPC-1 and BxPC-3)) (UniProt Q9H239)
Assay: co-IP; AsPC-1 and BxPC-3 lysates (500 μg each) with anti-MMP28 or anti-ANXA2 antibody (2 μg), protein A/G agarose 4 °C 3 h, five RIPA washes; Western blot; endogenous proteins

binding: binds
Substance: annex protein A2 (ANXA2) (from UniProt P07355 1-339)
